Reference: the supplement of paper PMC12823440, “Inhibitors supercharge kinase turnover through native proteolytic circuits” (Nature, 2025)
Counter-ions that a name gives are not always drawn. Some of the results follow. The calls rarely recur for the same compound in another form.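 Kinases, fused to nanoluciferase, were expressed in K562 cells; luminescence was measured every 4 h from 2 to 18 h as percent of control (DMSO = 100%, positive control = 0%). A time point is decreased if signal falls significantly (2 sigma). Hits were called by the authors by a rule that is not shown; the count of time points alone does not decide it.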

Amino acid sequences for entries named in this document (tags omitted). A change or cut given only in a name is not applied to a line headed by its entry.
UniProt Q8IWU2: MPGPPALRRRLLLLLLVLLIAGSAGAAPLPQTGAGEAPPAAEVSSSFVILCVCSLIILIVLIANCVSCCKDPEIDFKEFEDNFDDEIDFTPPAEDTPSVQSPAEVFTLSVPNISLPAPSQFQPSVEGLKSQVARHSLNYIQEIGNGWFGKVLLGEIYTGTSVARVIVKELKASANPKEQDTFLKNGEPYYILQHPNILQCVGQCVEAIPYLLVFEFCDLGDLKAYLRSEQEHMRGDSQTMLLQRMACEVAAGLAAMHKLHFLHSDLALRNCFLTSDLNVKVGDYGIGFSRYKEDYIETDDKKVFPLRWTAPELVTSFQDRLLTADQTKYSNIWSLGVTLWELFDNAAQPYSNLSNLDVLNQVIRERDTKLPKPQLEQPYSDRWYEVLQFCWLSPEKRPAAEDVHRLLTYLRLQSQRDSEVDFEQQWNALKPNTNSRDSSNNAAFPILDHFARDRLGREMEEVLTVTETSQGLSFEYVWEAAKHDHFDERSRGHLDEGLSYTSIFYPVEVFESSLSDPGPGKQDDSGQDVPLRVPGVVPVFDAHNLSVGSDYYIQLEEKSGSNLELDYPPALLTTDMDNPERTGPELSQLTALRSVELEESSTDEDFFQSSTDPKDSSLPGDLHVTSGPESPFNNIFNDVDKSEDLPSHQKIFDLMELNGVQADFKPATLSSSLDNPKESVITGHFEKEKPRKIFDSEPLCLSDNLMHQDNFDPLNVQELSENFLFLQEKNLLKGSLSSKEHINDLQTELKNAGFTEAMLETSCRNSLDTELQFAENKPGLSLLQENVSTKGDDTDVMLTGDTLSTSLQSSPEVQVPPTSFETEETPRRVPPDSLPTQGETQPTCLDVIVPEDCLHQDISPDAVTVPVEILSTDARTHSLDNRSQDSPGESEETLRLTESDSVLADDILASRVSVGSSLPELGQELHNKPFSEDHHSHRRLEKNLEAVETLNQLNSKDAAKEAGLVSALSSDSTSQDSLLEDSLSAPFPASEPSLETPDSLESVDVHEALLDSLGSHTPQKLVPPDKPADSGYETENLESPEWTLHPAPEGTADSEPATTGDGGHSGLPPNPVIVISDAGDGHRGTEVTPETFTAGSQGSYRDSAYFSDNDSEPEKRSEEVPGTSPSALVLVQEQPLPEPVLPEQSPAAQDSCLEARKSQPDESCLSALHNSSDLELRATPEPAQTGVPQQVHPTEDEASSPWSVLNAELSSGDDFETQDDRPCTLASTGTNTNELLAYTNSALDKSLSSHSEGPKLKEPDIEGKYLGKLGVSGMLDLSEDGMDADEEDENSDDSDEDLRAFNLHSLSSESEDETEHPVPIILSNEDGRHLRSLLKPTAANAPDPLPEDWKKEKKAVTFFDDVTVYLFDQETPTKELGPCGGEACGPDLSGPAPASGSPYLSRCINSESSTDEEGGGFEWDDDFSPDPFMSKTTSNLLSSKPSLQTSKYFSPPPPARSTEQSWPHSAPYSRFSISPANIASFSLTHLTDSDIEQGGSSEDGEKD
UniProt P07948: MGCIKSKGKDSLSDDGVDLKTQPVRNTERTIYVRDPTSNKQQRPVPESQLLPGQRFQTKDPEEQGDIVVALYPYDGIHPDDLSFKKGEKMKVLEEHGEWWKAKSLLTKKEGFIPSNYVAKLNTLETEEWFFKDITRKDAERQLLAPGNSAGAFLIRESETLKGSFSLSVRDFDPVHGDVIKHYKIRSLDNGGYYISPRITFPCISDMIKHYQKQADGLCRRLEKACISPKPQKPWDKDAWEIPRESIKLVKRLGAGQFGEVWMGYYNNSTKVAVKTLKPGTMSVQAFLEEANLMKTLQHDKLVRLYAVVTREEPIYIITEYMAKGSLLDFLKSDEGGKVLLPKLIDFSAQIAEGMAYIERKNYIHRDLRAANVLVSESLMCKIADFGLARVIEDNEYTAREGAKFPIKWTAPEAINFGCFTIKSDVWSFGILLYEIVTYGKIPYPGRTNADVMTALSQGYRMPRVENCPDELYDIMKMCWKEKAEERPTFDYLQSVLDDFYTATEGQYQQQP
UniProt Q12851: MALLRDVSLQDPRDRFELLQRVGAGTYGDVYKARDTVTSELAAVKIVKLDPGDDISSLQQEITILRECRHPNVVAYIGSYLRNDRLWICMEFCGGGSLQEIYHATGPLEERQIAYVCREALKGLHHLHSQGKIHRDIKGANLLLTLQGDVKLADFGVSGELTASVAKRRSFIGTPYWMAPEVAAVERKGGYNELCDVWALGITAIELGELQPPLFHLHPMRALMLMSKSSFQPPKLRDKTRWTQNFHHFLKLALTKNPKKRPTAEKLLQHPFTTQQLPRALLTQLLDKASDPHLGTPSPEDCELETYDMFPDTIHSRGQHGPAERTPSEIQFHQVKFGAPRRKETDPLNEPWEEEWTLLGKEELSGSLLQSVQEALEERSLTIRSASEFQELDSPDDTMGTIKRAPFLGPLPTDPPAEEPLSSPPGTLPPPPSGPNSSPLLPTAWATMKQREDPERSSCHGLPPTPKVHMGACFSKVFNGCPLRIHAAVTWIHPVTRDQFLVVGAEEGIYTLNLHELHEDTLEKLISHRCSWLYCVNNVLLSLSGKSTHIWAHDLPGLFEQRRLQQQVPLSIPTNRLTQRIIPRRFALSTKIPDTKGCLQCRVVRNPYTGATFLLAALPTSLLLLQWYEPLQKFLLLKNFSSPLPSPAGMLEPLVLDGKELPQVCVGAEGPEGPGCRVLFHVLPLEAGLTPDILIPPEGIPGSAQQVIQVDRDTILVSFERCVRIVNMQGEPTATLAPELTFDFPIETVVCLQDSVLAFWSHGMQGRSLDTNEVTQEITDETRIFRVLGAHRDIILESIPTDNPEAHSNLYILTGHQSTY
UniProt P28482, whole entry: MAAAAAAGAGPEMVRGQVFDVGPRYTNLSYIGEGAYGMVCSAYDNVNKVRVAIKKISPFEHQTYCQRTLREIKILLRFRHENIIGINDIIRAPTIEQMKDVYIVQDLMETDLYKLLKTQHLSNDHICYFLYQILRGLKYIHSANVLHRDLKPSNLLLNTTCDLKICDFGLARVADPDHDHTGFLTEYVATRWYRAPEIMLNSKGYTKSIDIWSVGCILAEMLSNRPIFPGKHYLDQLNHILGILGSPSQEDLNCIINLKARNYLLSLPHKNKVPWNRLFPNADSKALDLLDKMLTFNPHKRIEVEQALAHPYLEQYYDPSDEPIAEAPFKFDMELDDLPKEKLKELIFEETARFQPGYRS
UniProt P31152, whole entry: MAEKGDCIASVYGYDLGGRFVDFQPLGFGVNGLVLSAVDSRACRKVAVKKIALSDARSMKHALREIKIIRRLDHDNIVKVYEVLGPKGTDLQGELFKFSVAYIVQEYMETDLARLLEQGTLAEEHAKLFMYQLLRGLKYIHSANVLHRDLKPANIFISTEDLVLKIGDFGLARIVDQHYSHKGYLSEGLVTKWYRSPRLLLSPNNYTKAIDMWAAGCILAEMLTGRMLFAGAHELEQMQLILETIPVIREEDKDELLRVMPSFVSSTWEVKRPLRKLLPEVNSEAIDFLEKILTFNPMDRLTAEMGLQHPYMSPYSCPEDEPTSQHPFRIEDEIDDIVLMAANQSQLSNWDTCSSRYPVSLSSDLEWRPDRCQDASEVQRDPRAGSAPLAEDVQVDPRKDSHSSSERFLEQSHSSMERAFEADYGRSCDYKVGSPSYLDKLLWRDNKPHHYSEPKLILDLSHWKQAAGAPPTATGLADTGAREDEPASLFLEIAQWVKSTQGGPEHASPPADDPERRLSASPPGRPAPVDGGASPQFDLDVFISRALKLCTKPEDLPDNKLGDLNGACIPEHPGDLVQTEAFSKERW
UniProt P49137, whole entry, looked up: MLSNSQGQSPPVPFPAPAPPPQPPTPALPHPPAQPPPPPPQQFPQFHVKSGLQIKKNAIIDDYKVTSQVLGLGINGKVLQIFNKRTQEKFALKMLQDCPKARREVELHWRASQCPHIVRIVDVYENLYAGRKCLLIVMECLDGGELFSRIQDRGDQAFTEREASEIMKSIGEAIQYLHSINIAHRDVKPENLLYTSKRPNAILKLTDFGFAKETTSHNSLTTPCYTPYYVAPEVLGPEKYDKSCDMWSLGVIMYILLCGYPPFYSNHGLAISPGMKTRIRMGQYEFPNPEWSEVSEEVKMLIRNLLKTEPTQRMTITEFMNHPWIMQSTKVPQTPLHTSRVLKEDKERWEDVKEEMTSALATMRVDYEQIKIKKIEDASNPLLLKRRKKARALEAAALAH
UniProt Q9BUB5: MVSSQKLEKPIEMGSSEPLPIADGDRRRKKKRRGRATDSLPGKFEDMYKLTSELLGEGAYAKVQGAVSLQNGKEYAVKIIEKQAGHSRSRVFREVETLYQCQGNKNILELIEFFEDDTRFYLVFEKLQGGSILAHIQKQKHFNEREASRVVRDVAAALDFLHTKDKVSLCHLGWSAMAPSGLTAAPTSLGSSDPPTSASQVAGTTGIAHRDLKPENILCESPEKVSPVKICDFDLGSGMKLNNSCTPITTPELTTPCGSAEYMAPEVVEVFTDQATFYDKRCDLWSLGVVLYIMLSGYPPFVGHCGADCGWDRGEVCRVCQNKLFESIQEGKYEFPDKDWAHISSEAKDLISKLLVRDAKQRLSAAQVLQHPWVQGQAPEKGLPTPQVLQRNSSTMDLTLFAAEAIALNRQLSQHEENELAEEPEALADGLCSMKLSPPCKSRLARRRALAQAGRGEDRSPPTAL
UniProt Q16620, whole entry, looked up: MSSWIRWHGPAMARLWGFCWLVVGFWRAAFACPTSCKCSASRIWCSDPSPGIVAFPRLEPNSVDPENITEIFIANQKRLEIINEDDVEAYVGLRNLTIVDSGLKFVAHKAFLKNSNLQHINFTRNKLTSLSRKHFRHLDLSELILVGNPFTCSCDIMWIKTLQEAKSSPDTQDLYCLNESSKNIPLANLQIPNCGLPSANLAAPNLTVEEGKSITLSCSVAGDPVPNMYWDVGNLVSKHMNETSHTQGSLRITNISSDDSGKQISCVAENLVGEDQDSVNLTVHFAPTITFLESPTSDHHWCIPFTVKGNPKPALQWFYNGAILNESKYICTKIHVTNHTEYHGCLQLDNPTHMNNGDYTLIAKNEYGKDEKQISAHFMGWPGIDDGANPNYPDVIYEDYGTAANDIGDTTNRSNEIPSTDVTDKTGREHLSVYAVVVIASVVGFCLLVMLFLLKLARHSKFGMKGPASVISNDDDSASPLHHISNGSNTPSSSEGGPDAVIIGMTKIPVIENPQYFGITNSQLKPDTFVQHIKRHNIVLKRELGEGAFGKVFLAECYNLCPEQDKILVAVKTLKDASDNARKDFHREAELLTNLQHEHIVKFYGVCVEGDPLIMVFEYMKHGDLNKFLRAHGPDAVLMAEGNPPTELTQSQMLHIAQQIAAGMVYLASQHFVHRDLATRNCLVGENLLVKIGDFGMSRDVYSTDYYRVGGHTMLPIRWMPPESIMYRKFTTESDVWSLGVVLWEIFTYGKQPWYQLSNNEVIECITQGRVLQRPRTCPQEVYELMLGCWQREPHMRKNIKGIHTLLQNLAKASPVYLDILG

Experiments:
Test in all cases: number of time points (of 5) at which kinase-Nluc abundance scored as decreased, DMSO-normalised (count); higher = more persistent destabilization
Settings in all cases: K562; 2-18 h
LMTK2 = LMTK2 (UniProt Q8IWU2)
LYN = LYN (UniProt P07948)
MAP2K1 = MAP2K1 (UniProt Q02750)
MAP2K2 = MAP2K2 (UniProt P36507)
MAP4K2 = MAP4K2 (UniProt Q12851)
MAPK1 = MAPK1 (UniProt P28482)
MAPK4 = MAPK4 (UniProt P31152)
MAPKAPK2 = MAPKAPK2 (UniProt P49137)
MKNK1 = MKNK1 (UniProt Q9BUB5)
NTRK2 = NTRK2 (UniProt Q16620)

`C=CS(=O)(=O)c1ccc(Nc2nc(OCC3CCCCC3)c3[nH]cnc3n2)cc1` (2.5 µM) was tested. Which “number of time points” value (LMTK2) did it give?
Its value is 0.

What about the “number of time points” value (LYN) of the same compound?
The value was 0.

What about the “number of time points” value (MAP2K1) of the same compound?
The value was 0.

And the “number of time points” value (MAP2K2)?
The value was 0.

And the “number of time points” value (MAP4K2)?
The value was 0.

And the “number of time points” value (MAPK1)?
Its value is 0.

And the “number of time points” value (MAPK4)?
The value was 0.

And the “number of time points” value (MAPKAPK2)?
Its value is 0.

What about the “number of time points” value (MKNK1) of the same compound?
The value was 0.

And the “number of time points” value (NTRK2)?
Its value is 0.

How did the “number of time points” value (LMTK2) turn out when `CC[C@@H]1[C@H](F)C(=O)N[C@@H]1COc1nccc2cc(C(N)=O)c(OC)cc12` (10 µM) was run?
The value was 0.

What about the “number of time points” value (LYN) of the same compound?
The value was 0.

And the “number of time points” value (MAP2K1)?
The value was 0.

And the “number of time points” value (MAP2K2)?
Its value is 0.

And the “number of time points” value (MAP4K2)?
Its value is 0.

What about the “number of time points” value (MAPK1) of the same compound?
Its value is 0.

And the “number of time points” value (MAPK4)?
Its value is 0.

What about the “number of time points” value (MAPKAPK2) of the same compound?
Its value is 0.

And the “number of time points” value (MKNK1)?
Its value is 0.

What about the “number of time points” value (NTRK2) of the same compound?
Its value is 0.

For `CN(C)C(=O)c1ccc(S(=O)(=O)c2ccc(NC(=O)[C@@](C)(O)C(F)(F)F)c(Cl)c2)cc1` (10 µM), which “number of time points” value (LMTK2) is on record?
Its value is 2.

And the “number of time points” value (LYN)?
Its value is 0.

And the “number of time points” value (MAP2K1)?
Its value is 0.

And the “number of time points” value (MAP2K2)?
Its value is 0.

What about the “number of time points” value (MAP4K2) of the same compound?
The value was 0.

And the “number of time points” value (MAPK1)?
The value was 0.

What about the “number of time points” value (MAPK4) of the same compound?
Its value is 0.

And the “number of time points” value (MAPKAPK2)?
Its value is 0.

What about the “number of time points” value (MKNK1) of the same compound?
The value was 0.

What about the “number of time points” value (NTRK2) of the same compound?
Its value is 0.

How did the “number of time points” value (LMTK2) turn out when `CC1(COc2ccc3c(c2)ncn3-c2ccc3cccc(N4CCC(N)CC4)c3n2)COC1` [Crenolanib] (2.5 µM) was run?
The value was 3.

What about the “number of time points” value (LYN) of the same compound?
The value was 2.

And the “number of time points” value (MAP2K1)?
The value was 0.

What about the “number of time points” value (MAP2K2) of the same compound?
Its value is 0.

And the “number of time points” value (MAP4K2)?
Its value is 0.

What about the “number of time points” value (MAPK1) of the same compound?
Its value is 0.

And the “number of time points” value (MAPK4)?
Its value is 0.

And the “number of time points” value (MAPKAPK2)?
Its value is 0.

What about the “number of time points” value (MKNK1) of the same compound?
Its value is 2.

And the “number of time points” value (NTRK2)?
Its value is 0.

How did the “number of time points” value (LMTK2) turn out when `CSc1ccc(CN2CCCC(Nc3ccc4[nH]ncc4c3)C2)cc1` (stereo not given) [Rho-Kinase-IN-1] (10 µM) was run?
The value was 0.

And the “number of time points” value (LYN)?
Its value is 0.

And the “number of time points” value (MAP2K1)?
Its value is 0.

And the “number of time points” value (MAP2K2)?
Its value is 0.

What about the “number of time points” value (MAP4K2) of the same compound?
The value was 0.

What about the “number of time points” value (MAPK1) of the same compound?
Its value is 0.

What about the “number of time points” value (MAPK4) of the same compound?
The value was 0.

What about the “number of time points” value (MAPKAPK2) of the same compound?
The value was 0.

What about the “number of time points” value (MKNK1) of the same compound?
The value was 0.

What about the “number of time points” value (NTRK2) of the same compound?
Its value is 0.

`CC(C)C[C@H](NC(=O)[C@H](CCCCN)NC(=O)[C@H](CO)NC(=O)[C@@H](N)CC(C)C)C(N)=O` [LSKL, Inhibitor of Thrombospondin (TSP-1) (TFA)] (10 µM) was tested. Which “number of time points” value (LMTK2) did it give?
Its value is 0.

And the “number of time points” value (LYN)?
Its value is 0.

What about the “number of time points” value (MAP2K1) of the same compound?
Its value is 0.

And the “number of time points” value (MAP2K2)?
The value was 0.

And the “number of time points” value (MAP4K2)?
The value was 0.

What about the “number of time points” value (MAPK1) of the same compound?
The value was 0.

And the “number of time points” value (MAPK4)?
Its value is 0.

What about the “number of time points” value (MAPKAPK2) of the same compound?
Its value is 0.

What about the “number of time points” value (MKNK1) of the same compound?
Its value is 0.

What about the “number of time points” value (NTRK2) of the same compound?
Its value is 0.

`CN1C(=O)NC(Cc2c[nH]c3c(Cl)cccc23)C1=O` (racemic) [Necrostatin 2 (racemate)] (10 µM) was tested. Which “number of time points” value (LMTK2) did it give?
The value was 0.

And the “number of time points” value (LYN)?
The value was 0.

And the “number of time points” value (MAP2K1)?
The value was 0.

What about the “number of time points” value (MAP2K2) of the same compound?
The value was 0.

And the “number of time points” value (MAP4K2)?
The value was 0.

What about the “number of time points” value (MAPK1) of the same compound?
Its value is 0.

And the “number of time points” value (MAPK4)?
The value was 0.

And the “number of time points” value (MAPKAPK2)?
The value was 0.

And the “number of time points” value (MKNK1)?
Its value is 0.

And the “number of time points” value (NTRK2)?
The value was 0.

`Nc1n[nH]c2cc(-c3ccc(=O)n(Cc4cccc(Cl)c4)c3)ccc12` (10 µM) was tested. Which “number of time points” value (LMTK2) did it give?
Its value is 0.

What about the “number of time points” value (LYN) of the same compound?
The value was 0.

And the “number of time points” value (MAP2K1)?
Its value is 0.

And the “number of time points” value (MAP2K2)?
The value was 0.

And the “number of time points” value (MAP4K2)?
Its value is 0.

What about the “number of time points” value (MAPK1) of the same compound?
Its value is 0.

What about the “number of time points” value (MAPK4) of the same compound?
Its value is 0.

What about the “number of time points” value (MAPKAPK2) of the same compound?
Its value is 0.

And the “number of time points” value (MKNK1)?
Its value is 0.

What about the “number of time points” value (NTRK2) of the same compound?
Its value is 0.
